Results taken from paper PMC4366279 (PLoS ONE, 2015).
Numbering of substitutions follows the chain as printed. These are yes or no findings as the source states them, for the method shown. In cells and extracts the contact can be indirect. Some results given as binding are weak or reduced against the parent protein; the word gives no strength.

Key:
Test in all cases: pull-down; His6-TbREL1 TNT mixture mixed with an equal volume of untagged KREPA2 TNT mixture, captured on magnetic His-tag isolation beads (Dynabeads); binding buffer 50 mM NaPO4 pH 8.0, 300 mM NaCl, 0.01% Tween 20; 20-30 min at 4°C; three washes; [35S]-methionine-labelled proteins on 10% SDS-PAGE, PhosphorImager; KREPA2-only control for background
[1] = target: T1, TbREL1 K435A (Trypanosoma brucei) (UniProt P86926)
T1 sequence (chain, [35S]-methionine labelled): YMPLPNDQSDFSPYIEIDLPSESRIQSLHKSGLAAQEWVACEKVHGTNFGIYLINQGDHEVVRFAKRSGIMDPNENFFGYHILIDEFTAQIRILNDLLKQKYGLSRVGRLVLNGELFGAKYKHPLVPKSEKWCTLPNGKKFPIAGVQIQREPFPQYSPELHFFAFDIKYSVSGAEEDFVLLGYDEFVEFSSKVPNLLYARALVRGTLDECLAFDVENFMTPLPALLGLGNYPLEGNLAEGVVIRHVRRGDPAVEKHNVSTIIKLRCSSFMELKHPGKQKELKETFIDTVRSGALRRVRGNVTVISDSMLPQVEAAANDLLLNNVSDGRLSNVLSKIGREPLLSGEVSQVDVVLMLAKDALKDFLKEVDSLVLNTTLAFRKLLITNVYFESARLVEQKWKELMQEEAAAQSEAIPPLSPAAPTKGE

[2] = target: T2, TbREL1 E119A (Trypanosoma brucei) (UniProt P86926)
T2 sequence (chain, [35S]-methionine labelled): T1 sequence (chain, [35S]-methionine labelled) with E75A, A391K

[3] = target: T3, TbREL1 K405A (Trypanosoma brucei) (UniProt P86926)
T3 sequence (chain, [35S]-methionine labelled): T1 sequence (chain, [35S]-methionine labelled) with K361A, A391K

[4] = target: T4, TbREL1 Y275A (Trypanosoma brucei) (UniProt P86926)
T4 sequence (chain, [35S]-methionine labelled): T1 sequence (chain, [35S]-methionine labelled) with Y231A, A391K

Measured: binding

B1: KREPA2 (natural protein)
chain: MYRRFFRSAAVKHLGTTSAQCLMRATKYPCGAMCRNASSCHPQTLGYQQRFQSTTDKKFHCSVCKKPFRLEMAAKLHLQQAHGGDGSVEAGPGPGVEASSVNVVSTPVPSPISPVERTFVDEEERRPRRMRPTPKPLHQPDRDIPAAAMEEMLGVWDKIGLNRLEGNFVHSTMVMKVFAAPPDVSEIPLYEHVAPEGENPFDSLDHMTTGTVDATYVGHDAFAEVDLVDPFVAAPDQTLNPFRAGKVRNPFTRISPTQREVVKPLQPPQPKEEPLKAPVTPFGQLPMFGQTREPSASFAAAAVSVQAAANPNEVSSPFAAAVSSSPFVGQVASPFAPAQDVAGSPFEASPCAASSPFVTAGGQETSPFAAPSTPASFGQGSLFPPMGTGAPGFTAITETEQRQQELEHGCPTCGKKFSTFEGAAMHSKSKHGIVLESKKVKDRLNRKGVPDLPAYVPSPVDLSSTSPFGTRSAIGASWAETELIPHAQCVSNITIVGRVLDVSQASENVSHVTVFVEGERSGEEETLTLCCFGEVSQKIRGTLKRNATIFASGTLRLHPVYEASNNKYYVSPVVHVSMPTGTLAVIT
modifications: [35S]-methionine labelled
notes: KREPA2 of T. brucei, the KREPA2 open reading frame, expressed untagged (63 kDa); source: in vitro translated (TNT reticulocyte lysate coupled transcription and translation system, Promega)
binds: all assays above
